This is one part of the list. Further columns of the screen follow, without active or inactive calls. Compounds called inactive in the main read-out are mostly missing here. The note in brackets gives the kind of curve behind each potency; many fits are weak.
Experiment: qHTS Assay for Lipid Storage Modulators in Drosophila S3 Cells;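 as to cell number change: cells counted by Cell Tracker Red CMTPX staining in the red channel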
Details: BODIPY lipid droplet fluorescence, 18-24 h; for cell number change: measured here: cell count max response, cells fed with added oleic acid
In short: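 Drosophila S3 cells loaded with oleic acid (400 uM, as added) and compounds at several concentrations; lipid droplets imaged by 488-nm laser-scanning cytometry, 500–530 nm intensity and object ratio to cell channel. Percent activity normalized to 20 uM Triacsin C.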

[1] = measured here: cell number channel AC50, cells fed with added oleic acid
[2] = measured here: lipid fluorescence (Fed channel) AC50, cells fed with added oleic acid

Row | SMILES | cell number change [%] | AC50 [1] | AC50 [2]
1 | O=[N+]([O-])c1ccc2[nH]c3c(c2c1)CCCC3 | -1.17 | 6510 nM [falling, single point] | 5.17 nM [falling, full curve, poor fit]
2 | Cc1c(Cl)cccc1NC(=O)CCCn1nc([N+](=O)[O-])cc1C | 49.7 | 11600 nM [rising, partial curve, poor fit] | –
3 | Cc1ccc2c(CN3CCN(S(=O)(=O)c4ccc5c(c4)OCCO5)CC3)cc(=O)oc2c1C | 31.7 | 5.17 nM [rising, full curve, poor fit] | –
4 | N#Cc1ccc(C23CC4CC(CC(C4)C2)C3)[nH]c1=O | 4.4 | – | –
5 | O=C(CN1C(=O)c2ccccc2S1(=O)=O)NCCSC1CCCCC1 | -31.6 | 6510 nM [falling, full curve, poor fit] | 2310 nM [falling, partial curve, poor fit]
6 | CCCC(=O)Nc1ccc(Cl)c(NC(=O)c2cccnc2)c1 | 58.4 | 231 nM [rising, full curve] | 29100 nM [rising, single point]
7 | O=C1N(CN2CCN(Cc3ccccc3)CC2)c2ccccc2C12OCCCO2 | – | – | 2310 nM [falling, partial curve]
8 | CCC1(c2ccccc2)NC(=O)N(C)C1=O (stereo not drawn) | -34.7 | 4610 nM [falling, full curve] | 1840 nM [falling, full curve]
9 | CO/N=C/C(C#N)c1ncc(C(F)(F)F)cc1Cl (stereo not drawn) | -31.1 | 11600 nM [falling, partial curve] | 5.17 nM [falling, full curve, poor fit]
10 | N=c1oc2ccc3ccccc3c2cc1-c1nnc2n1CCCCC2 | -0.982 | – | 920 nM [falling, full curve, poor fit]
11 | Cc1ccccc1NS(=O)(=O)c1nnc(NC(=O)C(C)C)s1 | -11.3 | – | –
12 | COc1ccc([C@H]2CC(=O)C=C(c3cccc(Cl)c3O)C2)cc1OC | 10.9 | 5800 nM [falling, single point] | 6510 nM [falling, single point]
13 | Fc1ccc(-n2c(-c3ccc4ccccc4n3)n[nH]c2=S)cc1Cl | 15.3 | – | –
14 | O=c1c(Cl)c(N2CCN(c3ccccc3)CC2)cnn1C12CC3CC(CC(C3)C1)C2 | 8.87 | – | 82 nM [rising, partial curve, poor fit]
15 | COc1cc(NC(=S)NCc2cccnc2)cc(OC)c1 | – | – | 2910 nM [falling, single point]
16 | CCN(CC)c1ccc(/C=N/NC(=S)NCc2ccc(OC)cc2)cc1 | 3.98 | – | 920 nM [rising, single point]

Two entries from above, with each value named:
N#Cc1ccc(C23CC4CC(CC(C4)C2)C3)[nH]c1=O
  cell number change [%]: 4.4
CCCC(=O)Nc1ccc(Cl)c(NC(=O)c2cccnc2)c1
  cell number change [%]: 58.4
  AC50 [1]: 231 nM [rising, full curve]
  AC50 [2]: 29100 nM [rising, single point]

From PubChem BioAssay AID2685 (National Center for Advancing Translational Sciences (NCATS), 2010)
